Measured values published in US7235557B2, “Compounds and their uses” (MGI GP, Inc., priority 2000, dated 2007).

Assay: Focal cerebral ischemia study: arterial blood gases, MABP and cortical blood flow
Assay type: in vivo, male Long-Evans rats
Settings: for pH: arterial blood 30 min after MCA occlusion; for MABP Ischemia: average during occlusion; for relative blood flow in the right parietal cortex, of the baseline: during MCA and CCA occlusion, laser Doppler; for MABP Steady State: just prior to occlusion

SMILES: O=C1NCCc2c(OCCCCN3CCCCC3)cccc21 [DPQ, 3,4-dihydro-5-[4-(1-piperidinyl)-butoxy]-1(2H)-isoquinolinone]
- pH (5 mg/kg): 7.36 ± 0.02
- MABP Ischemia (5 mg/kg): 91 ± 12 mm Hg
- relative blood flow in the right parietal cortex, of the baseline (5 mg/kg): 18.7±7.4%
- MABP Steady State (5 mg/kg): 78 ± 5 mm Hg
- pH (10 mg/kg): 7.34 ± 0.03
- MABP Ischemia (10 mg/kg): 90 ± 14 mm Hg
- relative blood flow in the right parietal cortex, of the baseline (10 mg/kg): 21.4±7.7%
- MABP Steady State (10 mg/kg): 80 ± 9 mm Hg
- pH (20 mg/kg): 7.35 ± 0.23
- MABP Ischemia (20 mg/kg): 91 ± 12 mm Hg
- MABP Steady State (20 mg/kg): 79 ± 10 mm Hg
- pH (40 mg/kg): 7.33 ± 0.24
- MABP Ischemia (40 mg/kg): 88 ± 12 mm Hg
- relative blood flow in the right parietal cortex, of the baseline (40 mg/kg): 19.3±11.2%
- MABP Steady State (40 mg/kg): 78 ± 4 mm Hg
